Test results reported in article PMC10766628.

Target: MINK1 as used in the co-IP validation of Fig. 4E
Assay: co-IP; HEK293T cells; lysis in 10 mM Tris-HCl, 150 mM NaCl, 1% NP-40, 1% Triton X-100, 1 mM DTT, pH 7.5; anti-FLAG M2 or anti-HA magnetic beads overnight at 4 C; washes up to 500 mM NaCl; western blots

binding: binds weakly
B1: CRYAB (protein, UniProt P02511 1-175)
chain: MDIAIHHPWIRRPFFPFHSPSRLFDQFFGEHLLESDLFPTSTSLSPFYLRPPSFLRAPSWFDTGLSEMRLEKDRFSVNLDVKHFSPEELKVKVLGDVIEVHGKHEERQDEHGFISREFHRKYRIPADVDPLTITSSLSSDGVLTVNGPRKQVSGPERTIPITREEKPAVTAAPKK

No constants are given. Whether binding was seen depends on the method and setting. Binding seen in cells or lysates may run through a third protein. Binding can be weak; no strength is given.
